# Assay results: PubChem BioAssay AID588590 (National Center for Advancing Translational Sciences (NCATS), 2011)
# Chains of the proteins cited; added tags and fusions are not shown. Lines headed by an entry give the natural chain unless they say otherwise; changes in a name come on top.
# UniProt Q9UNA4: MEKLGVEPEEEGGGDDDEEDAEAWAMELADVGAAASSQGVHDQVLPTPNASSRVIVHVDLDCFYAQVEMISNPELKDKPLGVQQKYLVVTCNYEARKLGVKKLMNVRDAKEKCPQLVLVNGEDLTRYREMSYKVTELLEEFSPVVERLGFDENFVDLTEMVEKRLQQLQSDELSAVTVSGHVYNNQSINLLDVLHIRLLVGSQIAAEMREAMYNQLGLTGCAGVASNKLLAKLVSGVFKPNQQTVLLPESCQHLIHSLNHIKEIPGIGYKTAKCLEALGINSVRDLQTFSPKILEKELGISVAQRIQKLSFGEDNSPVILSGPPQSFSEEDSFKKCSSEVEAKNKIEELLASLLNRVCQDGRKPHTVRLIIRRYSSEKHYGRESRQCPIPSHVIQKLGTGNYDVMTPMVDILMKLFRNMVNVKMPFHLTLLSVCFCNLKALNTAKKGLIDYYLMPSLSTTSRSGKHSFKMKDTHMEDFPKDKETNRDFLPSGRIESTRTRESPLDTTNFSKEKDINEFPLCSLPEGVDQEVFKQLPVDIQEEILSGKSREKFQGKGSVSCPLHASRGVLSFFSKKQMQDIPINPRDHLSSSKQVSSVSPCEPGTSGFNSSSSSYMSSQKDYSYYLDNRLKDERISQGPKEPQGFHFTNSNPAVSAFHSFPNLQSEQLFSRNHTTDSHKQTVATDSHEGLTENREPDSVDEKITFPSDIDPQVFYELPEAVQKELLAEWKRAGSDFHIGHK
# The whole screen tested about 390,000 compounds, of which about 4,000 (1%) were called active. The inconclusive results got no clear call from the source; some entries with a clear call stand among them for comparison. The call rests on the fitted dose curve; in most records, active means well fitted inhibition curve with a large enough effect; inconclusive means small, poorly fitted or top-dose-only effect, or another doubt; inactive means no such curve, though single readings can be large or run the other way. Potencies beside an inconclusive call are fits to weak or partial responses and may not hold up.
# Target: DNA polymerase iota (Homo sapiens) (UniProt Q9UNA4)
# Assay: qHTS for Inhibitors of Polymerase Iota
# Conditions: Pol iota fluorescent replication assay, 10 min; series mostly up to 115 µM; activity, negative = inhibition: at the top concentration
# Summary of the method: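 Pol iota at 10 nM preincubated 15 min with compounds at room temperature; reaction started with fluorescent substrate, 50 nM final. Fluorescence read kinetically at 0 and 10 min; buffer-only wells as negative control.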
# Potency means the concentration at half of the fitted maximal effect.
Compound,Potency,"activity, negative = inhibition"
CC(=O)c1cc(C)c(OCc2cn(CC(=O)c3ccc(O)cc3)nn2)c(C)c1,active: 7.94 µM,
N#Cc1ccsc1NC(=O)CSc1ncnc2ccccc12,"inconclusive: 11.2 µM [inhibitor, full curve, poor fit]",
O=C(c1ccc2c(c1)OCCO2)C1CCN(C(=O)c2ccc(F)c(F)c2)CC1,"inconclusive: 70.8 µM [inhibitor, partial curve]",
CCCCn1c(N)c(N(CCC(C)C)C(=O)C2CC(=O)N(c3ccc4c(c3)OCCO4)C2)c(=O)[nH]c1=O (centres undefined),"inconclusive: 79.4 µM [inhibitor, partial curve]",
NC(=O)C1(N2CCCCC2)CCN(C(=O)Nc2ccc(F)cc2F)CC1,,inactive: 29.6%
Cc1cccc(NS(=O)(=O)c2ccc(C(=O)N3CC(C)OC(C)C3)cc2)c1C (centres undefined),,inactive: 55.5%
CCCC(C(=O)NCc1ccc(OC)cc1)N(Cc1ccco1)C(=O)c1snc(C(N)=O)c1N (centres undefined),"inconclusive: 56.2 µM [inhibitor, partial curve, poor fit]",
CCOC(=O)CNS(=O)(=O)c1cc(-c2nn(C)c(=O)c3ccccc23)ccc1C,active: 25.1 µM,
CCc1ccc2nc(Nc3ncc(C(C)=O)c(C)n3)nc(C)c2c1,"inconclusive: 0.631 µM [inhibitor, full curve, poor fit]",
Nc1ccc(NC(=O)Nc2ccc(N)cc2)cc1,"inconclusive: 79.4 µM [inhibitor, partial curve]",
Cc1ccc(/C=C/C(=O)OCC(=O)N(CC(C)C)c2c(N)n(Cc3ccccc3)c(=O)[nH]c2=O)o1,"inconclusive: 70.8 µM [inhibitor, partial curve]",
NC(=S)N/N=C\c1c2ccccc2cc2ccccc12,"inconclusive: 25.1 µM [inhibitor, partial curve, poor fit]",
O=C(Oc1ccccc1[N+](=O)[O-])c1cccnc1,"inconclusive: 89.1 µM [inhibitor, single point]",
CSc1ncc(CN2CCCC(C(=O)Nc3ccc(-c4ccco4)cc3)C2)cn1 (centres undefined),"inconclusive: 11.2 µM [inhibitor, partial curve, poor fit]",
O=C1Nc2ccccc2C1=Nc1ccccc1-c1ccccc1,"inconclusive: 89.1 µM [inhibitor, single point]",
Cc1ccc(Cc2cncc(O)c2)cc1S(=O)(=O)O,"inconclusive: 12.6 µM [inhibitor, full curve, poor fit]",
O=C(Nc1ccccc1)c1ccc(-c2ccc([N+](=O)[O-])cc2)o1,"inconclusive: 56.2 µM [inhibitor, partial curve]",
Cc1cc(C)c(NC(=O)Nc2ccccc2)c(C)n1,,inactive: -7.63%
O=C1C(c2ccc(F)cc2)N(Cc2ccc3c(c2)OCO3)C(=O)CN1C1CCCCC1 (centres undefined),"inconclusive: 39.8 µM [inhibitor, partial curve, poor fit]",
COC1=C(c2ccccc2)C(=O)c2ccccc2C1=O,"inconclusive: 17.8 µM [inhibitor, partial curve]",
CC(C)(C)n1nnnc1CN1CCN(C(c2ccccc2)c2ccccc2)CC1,"inconclusive: 10 µM [inhibitor, full curve, poor fit]",
COc1ccc(C(=O)CSc2nnc(-c3cc(C)on3)o2)cc1,,inactive: -25.1%

Compound,Potency,"activity, negative = inhibition"
CN(C)c1nc(N)nc(N(c2ccccc2)c2ccccc2)n1,"inconclusive: 35.5 µM [inhibitor, single point]",
Cn1c(-c2ccc(Br)cc2)cnc1NCc1ccc(C#N)cc1,,inactive: 18.8%
COc1ccc(CN(C)CC(=O)Nc2cccc(S(N)(=O)=O)c2)c(OC)c1OC,"inconclusive: 25.1 µM [inhibitor, partial curve, poor fit]",
COc1ccc(CCNC(=O)Cc2c(C)c3c(cc(C)c4c(C)c(C)oc43)oc2=O)cc1,,inactive: -9.64%
O=C(O)CN1C(=O)/C(=C\c2cn(CC(=O)N3CCOCC3)c3ccccc23)SC1=S,"inconclusive: 89.1 µM [inhibitor, single point]",
O=c1c2c(nc3c(-c4ccccc4)c[nH]n13)CCC2,"inconclusive: 70.8 µM [inhibitor, partial curve]",
Cc1c(NC(=O)CSc2nnc3c4ccccc4n(CCc4ccccc4)c3n2)c(=O)n(-c2ccccc2)n1C,"inconclusive: 28.2 µM [inhibitor, single point]",
Cc1ccc(S(=O)(=O)N(CC(=O)NCCc2ccc(Cl)cc2)c2ccccc2C)cc1,,inactive: -15.8%
O=C(NCc1ccco1)C1CCCN(S(=O)(=O)c2ccc(-n3cnnn3)cc2)C1 (centres undefined),"inconclusive: 17.8 µM [inhibitor, full curve, poor fit]",
Cc1c(NC(=O)NCCN2C(=O)C3C4C=CC(C4)C3C2=O)c(=O)n(-c2ccccc2)n1C (centres undefined),"inconclusive: 28.2 µM [inhibitor, full curve, poor fit]",
COc1ccccc1C(=O)NC(=S)Nc1ccc2[nH]c(=O)[nH]c2c1,"inconclusive: 11.2 µM [inhibitor, partial curve, poor fit]",
CCOC(=O)N1CCC(C(N)=O)CC1,,inactive: 10.7%
O=C1c2ccccc2-c2c1c1ccccc1c(=O)n2CCO,"inconclusive: 63.1 µM [inhibitor, partial curve, poor fit]",
Cc1[nH]c2c(ccc3cccnc32)c1C,,inactive: 64.8%
COc1ccc(NC(=O)C2CCN(C(=O)c3cccs3)CC2)cc1,"inconclusive: 3.16 µM [inhibitor, single point]",
O=C(c1ccc(C(F)(F)F)cc1)C1CCCN(C(=O)CCc2cnccn2)C1 (centres undefined),,inactive: 31.6%
CCOC(=O)c1ccccc1NC(=O)CN(c1ccccc1)S(=O)(=O)N(C)C,"inconclusive: 50.1 µM [inhibitor, partial curve, poor fit]",
Cn1c(CSc2nnc(SCc3ccccc3)s2)nc2ccccc21,"inconclusive: 12.6 µM [inhibitor, partial curve, poor fit]",
Cc1cccc(-n2ncc3c(NCCCO)ncnc32)c1,"inconclusive: 39.8 µM [inhibitor, single point]",
Cc1ccc(NC(=O)COc2coc(CN3CCc4ccccc43)cc2=O)c(C)c1,"inconclusive: 44.7 µM [inhibitor, partial curve]",
Cc1cc(=O)[nH]c(N/N=C/c2cc(C)n(CC(F)(F)F)c2C)n1,"inconclusive: 0.891 µM [inhibitor, full curve, poor fit]",
Cn1cc(CNC(=O)c2cc(-c3ccc(Br)cc3)nc3ccccc23)cn1,"inconclusive: 0.891 µM [inhibitor, full curve, poor fit]",

Compound,Potency,"activity, negative = inhibition"
COC(=O)c1ccccc1NC(=O)C1CCN(C(=O)c2ccc(OC)cc2)CC1,"inconclusive: 39.8 µM [inhibitor, single point]",
CC1CCN(c2ccccc2NC(=S)NC(=O)C(C)(C)C)CC1,,inactive: 28.8%
CC(C)c1ccc(NC2=NCC(=O)N2Cc2cccs2)cc1,"inconclusive: 50.1 µM [inhibitor, partial curve, poor fit]",
Cc1ccccc1NC(=O)CSc1cn(CC(=O)N(C(C)C)C(C)C)c2ccccc12,,inactive: 18.5%
Cc1nn(-c2ccccc2)c2sc(-c3n[nH]c(=S)o3)cc12,"inconclusive: 15.8 µM [inhibitor, partial curve, poor fit]",
COC(=O)c1ccccc1NC(=O)CN(C)Cc1ccccc1,"inconclusive: 79.4 µM [inhibitor, partial curve, poor fit]",
COC(=O)[C@]1(C)N[C@H](CN(C)S(=O)(=O)c2ccccc2)[C@@H]2C(=O)N(C)C(=O)[C@@H]21,"inconclusive: 31.6 µM [inhibitor, single point]",
COc1ccc(C(=O)/C=C/Nc2ccc(S(N)(=O)=O)cc2)cc1OC,"inconclusive: 79.4 µM [inhibitor, partial curve, poor fit]",
O=C(COC(=O)c1c(F)cccc1F)Nc1ccc2c(c1)OCO2,"inconclusive: 89.1 µM [inhibitor, single point]",
CC(C)(C)[C@H]1CCC(=O)N(CCSc2ccc(Br)cc2)CC1,"inconclusive: 25.1 µM [inhibitor, single point]",
O=C(/C=C/c1ccccc1Br)c1ccc2c(c1)OCO2,"inconclusive: 39.8 µM [inhibitor, partial curve, poor fit]",
COc1ccc(-c2ccc(NS(=O)(=O)c3cccc(C)c3)cc2)nn1,"inconclusive: 79.4 µM [inhibitor, partial curve, poor fit]",
COc1nc(Nc2cccc(C)c2)nc(N2CCCCC2)n1,"inconclusive: 89.1 µM [inhibitor, single point]",
COc1cc(/C=N\NC(=O)c2ccc(-c3ccccc3)cc2)cc(Br)c1O,"inconclusive: 25.1 µM [inhibitor, single point]",
COc1cc(OC)c(/C=C/c2nccc3ccccc23)c(OC)c1,"inconclusive: 25.1 µM [inhibitor, single point]",
O=C(O)c1ccc(NS(=O)(=O)c2ccc3c(c2)C(=O)c2ccccc2C3=O)cc1,"inconclusive: 10 µM [inhibitor, full curve, poor fit]",
CCOc1ccccc1NC(=O)C1C2CCC3C(CCC21)C3(Cl)Cl (centres undefined),"inconclusive: 22.4 µM [inhibitor, partial curve, poor fit]",
COc1ccc(C(=O)Oc2cc(C)[nH]c(=O)c2[N+](=O)[O-])c(OC)c1,"inconclusive: 100 µM [inhibitor, partial curve, poor fit]",
O=C(NN1C(=O)C2CC=C(Cl)CC2C1=O)c1ccncc1 (centres undefined),active: 39.8 µM,
CCN(CC)Cc1c(O)c(Cl)cc2c(C)cc(=O)oc12,"inconclusive: 17.8 µM [inhibitor, full curve]",

# Retrieved by compound from the list above (3):
Compound,Potency,"activity, negative = inhibition"
CCN(CC)Cc1c(O)c(Cl)cc2c(C)cc(=O)oc12,"inconclusive: 17.8 µM [inhibitor, full curve]",
COc1cc(OC)c(/C=C/c2nccc3ccccc23)c(OC)c1,"inconclusive: 25.1 µM [inhibitor, single point]",
O=C(O)c1ccc(NS(=O)(=O)c2ccc3c(c2)C(=O)c2ccccc2C3=O)cc1,"inconclusive: 10 µM [inhibitor, full curve, poor fit]",
